Measured data: PubChem BioAssay AID743448 (Peter MacCallum Cancer Centre, 2014)
Assay: 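Third-round triage of 106 confirmed candidates in four colon lines under two drugs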 (follow-up of hits). Cells: four human colon cancer cell lines: HCT116-VR (vorinostat-resistant HCT116 derivative), SW480, SW620 and LIM1215. Reagent: siRNA pool against human genes, 40 nM siRNA pool. Time to read-out: drug added two days after transfection, read one day later. Conditions: vorinostat 2.5 µM on one half of each plate, etoposide 5 µM on the other half. Cell line and drug panel: SW480 cells with vorinostat. Detection: 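Caspase luminescence and viability fluorescence, each expressed relative to mock transfection and also as robust z-scores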. Scale: caspase ratio to mock: higher = more caspase activity than mock; viability ratio to mock: higher = more live cells than mock; caspase robust z-score: higher = more caspase activity, more apoptosis; viability robust z-score: higher = more live cells. Hit rule: 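a row is a hit if caspase relative to mock is 1.6 or above or viability relative to mock is 0.75 or below; wells dying heavily without drug are not called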. Meaning of the calls: active = caspase or viability hit in this panel; inactive = no change, or unhealthy well.
Shown is an unselected part of the 106 reagents, in one setting of the screen. 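Calls are per line and drug panel including etoposide, not vorinostat-specific; gene picks needed hits in two or more extra lines with vorinostat versus etoposide.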 No sequences are given here.

The first 3 entries, to show the layout:
Target gene,caspase ratio to mock,viability ratio to mock,caspase robust z-score,viability robust z-score,outcome
PRRT3,2.12,0.88,0.87,0,active
GATA1,2.66,0.96,2.04,0.5,active
NUP205,1.22,0.6,-1.04,-1.77,active

Main list, from the first entry:
Target gene,caspase ratio to mock,viability ratio to mock,caspase robust z-score,viability robust z-score,outcome
PRRT3,2.12,0.88,0.87,0,active
GATA1,2.66,0.96,2.04,0.5,active
NUP205,1.22,0.6,-1.04,-1.77,active
ANO9,2.15,0.93,0.96,0.32,active
PSMD13,1.6,0.81,-0.24,-0.46,active
NPC1L1,2.33,0.92,1.34,0.26,active
POLR2L,1.48,0.74,-0.51,-0.85,active
RBM42,1.14,0.87,-1.23,-0.09,inactive
SAP130,2.08,0.92,0.81,0.29,active
MRPL19,2.05,0.92,0.74,0.26,active
NUP58,0.92,0.72,-1.69,-1.01,active
H1-5,1.81,0.52,0.2,-2.29,inactive
POLR2J,1.44,0.82,-0.57,-0.38,inactive
C1orf210,2.01,0.82,0.66,-0.42,active
C1orf52,1.53,1.03,-0.36,0.94,inactive
RBBP8,1.73,0.98,0.04,0.66,active
RLN3,1.98,0.87,0.59,-0.07,active
PUF60,2.58,0.87,1.88,-0.07,active
RGS18,1.68,1.12,-0.06,1.57,active
EIF2B2,1.42,0.88,-0.61,0.04,inactive
MAGOH,1.04,1.12,-1.43,1.58,inactive
LCE2A,2.06,0.79,0.77,-0.58,active
SERTAD1,2.15,0.93,0.95,0.32,active
SLU7,1.69,0.65,-0.04,-1.47,active
BEGAIN,1.82,1.06,0.23,1.12,active
GLI1,1.12,0.94,-1.24,0.36,inactive
CNOT1,1.48,0.46,-0.46,-2.67,inactive
PSMD4,2.24,0.92,1.13,0.27,active
C22orf15,2.12,1,0.88,0.82,active
RERE,1.75,1.1,0.1,1.42,active
TDP2,2.03,0.83,0.76,-0.51,active
EIF1AX,1.12,0.78,-1.26,-0.64,inactive
GNG8,1.68,0.76,-0.07,-0.8,active
LAD1,2.5,0.76,1.69,-0.72,active
